At least one compound was matched to its structure with a doubt left.
System: internal anal sphincter
Test: rat internal anal sphincter (IAS) relaxation model: internal anal sphincter pressure (IASP) in anesthetized rats
Format: in vivo
Conditions: zardaverine i.p. plus isoproterenol 0.2 μg/hour
Method: Male Sprague-Dawley rats (300-400 gm) were anesthetized with ketamine (90 mg/kg), xylazine (9 mg/kg) given intramuscularly and supplemented as needed with ⅓^rd dose. Rats were gently restrained on their backs on a heated surgical table (Harvard Apparatus) for the duration of the experiments. The diuretic effects of anesthesia was offset by rehydration with saline through an intraperitoneal implanted 24 gauge angiocatheter (VWR, San Francisco, Calif.). The constriction/relaxation measurement assembly included a Millar catheter/transducer (1.67 mm diameter.) connected to a Digi-Med Low Pressure Analyzer (Micro-Med) accurate for pressure measurements between −50 and 150 mmHg. […] Blood pressure changes were monitored using an arterial catheter/transducer and a Digi-Med Blood Pressure Analyzer with the DMSI software. Respiratory changes were monitored using a mercury strain gauge/transducer, wrapped around the rib-cage of the rat, hooked up to a Digi-Med Analog Signal Analyzer along with the DMSI software. […]
In this example, male Sprague-Dawley rats (250-300 g each) from Charles River were used. […] All internal anal sphincter pressures (IASP) were measured with Millar catheter/transducers (MPC-500 mikrotip; Millar Instruments, Houston) on low pressure analyzers and blood pressure analyzers and recorded by DMSI software provided by Micro-Med (Louisville). […]

With `COc1cc(-c2ccc(=O)[nH]n2)ccc1OC(F)F` [zardaverine] the “potentiation of subthreshold levels of isoproterenol (summary FIGS. 36-39)” value was “potentiation of subthreshold levels of isoproterenol”.
